Data reported in patent EP1946778A1, “Active substance combination for the treatment of diabetes” (Laboratorios del Dr. Esteve S.A., priority 2007, dated 2008).
At least one structure is not confirmed: it was looked up by name or label, or the drawing left a doubt.

The chains behind the UniProt entries cited, without tags or fusion partners.
UniProt P20272, whole entry: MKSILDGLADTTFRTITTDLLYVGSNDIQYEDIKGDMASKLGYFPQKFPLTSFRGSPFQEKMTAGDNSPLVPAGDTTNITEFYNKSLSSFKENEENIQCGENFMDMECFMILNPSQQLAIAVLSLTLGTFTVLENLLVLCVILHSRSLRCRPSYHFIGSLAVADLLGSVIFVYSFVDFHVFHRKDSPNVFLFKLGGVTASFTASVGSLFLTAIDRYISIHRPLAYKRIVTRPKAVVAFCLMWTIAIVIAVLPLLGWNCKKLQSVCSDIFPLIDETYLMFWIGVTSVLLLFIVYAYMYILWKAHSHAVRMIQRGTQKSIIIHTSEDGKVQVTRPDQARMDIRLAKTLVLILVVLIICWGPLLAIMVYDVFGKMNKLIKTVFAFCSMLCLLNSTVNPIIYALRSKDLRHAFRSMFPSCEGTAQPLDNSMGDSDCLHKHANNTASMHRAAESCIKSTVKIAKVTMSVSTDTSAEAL

Assays:
[1] = molecular target: T1, rat CB1 receptors (Rattus norvegicus, UniProt P20272); experiment: Competitive binding to CB1 receptor, [3H]-CP 55,940, rat cerebellum membranes; conditions: 1 nM [3H]-CP 55,940; cerebella of male Wistar rats; 1 hour at 30°C
T1 construct: cerebella from male Wistar rats (250-300g) were carefully dissected on ice and homogenates were prepared; from tissue; host or cells: rat cerebellum (male Wistar rats) membrane homogenate

[2] = Plasma glycerol and triacylglycerol assay, female DIO Wistar rats (COMPOUND A, COMPOUND B); type: in vivo; conditions: obese female Wistar rats; 10 mg/kg po once daily for 28 days
Experimental: The experiment was performed on female Wistar rats (originally in the weight range 250-300 g). The rats were housed in pairs in polypropylene cages with solid floors and sawdust bedding at a temperature of 21±4°C and 55±20% humidity. Animals were maintained on a reverse phase light-dark cycle (lights off for 8 h from 09.30-17.30 h) during which time the room was illuminated by red light. Animals had free access to powdered high fat diet (VRF1 plus 20% lard), ground chocolate, ground peanuts and tap water at all times. The three different diets were contained in separate glass feeding jars with aluminum lids with a 3-4 cm hole cut in it to allow access to the food. […] Animals were then housed singly in polypropylene cages with wire grid floors to enable the food intake of each rat to be recorded. […] Animals were accustomed to these new conditions (individual housing and the wire-grid floor cages) for at least 14 days before the start of the baseline readings. […]
Plasma triacylglycerol was determined by modification of a discrete assay kit (Sigma Triglyceride determination kit, Cat No. TR0100) to a 96-well format. […]
A 2.5 mg/ml triolein equivalent glycerol standard was obtained from Sigma. […] Optical density readings were then transferred to GraphPad Prism and unknown values extrapolated from a linear regression fit to the standard curve. […]

[3] = Olanzapine-induced weight-gain and hyperphagia in female Sprague-Dawley rats on high fat diet; type: in vivo; conditions: olanzapine 3 mg/kg, COMPOUND C 30 mg/kg, alone or combined, vs vehicle

SMILES | pIC50 [1] | plasma triacylglycerol concentrations, effect vs vehicle [2] | body weights during treatment ([3]; once daily po for 14 days) | daily food intake ([3]; once daily po for 14 days) | mean weight on Day 15 ([3]; once daily po for 14 days) | cumulative intake of food over the first week of the experiment ([3]; once daily po)
O=C(NN1CCCCC1)C1=NN(c2ccc(Cl)cc2Cl)[C@H](c2ccc(Cl)cc2)C1 [COMPOUND B, (S)-N-piperidinyl-5-(4-chlorophenyl)-1-(2,4-dichlorophenyl)-4,5-dihydro-1H-pyrazole-3-carboxamide] | 6.09 ± 0.09 | without effect | – | – | – | –
Cc1cc2c(s1)Nc1ccccc1N=C2N1CCN(C)CC1 [olanzapine, reference compound] | – | – | marked and sustained increase in the body weights | increase in the food intake | statistically (p < 0.01) greater | statistically greater (p < 0.05)
